Laboratory results taken from PubChem BioAssay AID493014 (National Center for Advancing Translational Sciences (NCATS), 2011).
Some of the results follow. Shown are side measurements of this screen, not its main read-out; they come without a call. The list favours compounds with an active or inconclusive main result. Potencies come from curve fits of mixed quality, noted in brackets.

Test: qHTS Assay to Find Inhibitors of Chronic Active B-Cell Receptor Signaling
Conditions: ABC-DLBCL IkBa-CBG/CBR reporter, luminescence ratio (green luciferase fused to IkBa over red control in TMD8 lymphoma cells), 4 h
Summary of the method: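 Doxycycline induced both beetle luciferases in TMD8 lymphoma cells; IKK-driven degradation limits the IkappaBalpha-fused green signal, while red luminescence normalises for cell number and nonspecific effects. Compounds tested up to 46 uM, 4 hrs.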

[1] = measured here: CBR red luminescence, cell number
[2] = measured here: IkBa-CBG green luminescence

Row | SMILES | AC50 [1] | AC50 [2]
1 | Cc1cc(Cl)c2oc(C(=O)N3CCN(C4CCS(=O)(=O)C4)CC3)c(C)c2c1 (configuration not stated) | 15.8 µM [rising, partial curve, poor fit] | –
2 | COc1ccccc1Cn1c(=S)[nH]c2ccc(Br)cc2c1=O | 0.1 µM [rising, full curve, poor fit] | –
3 | Cc1cc(O)c(C(=O)Cc2csc(C)n2)c(O)c1 | 15.8 µM [falling, single point] | –
4 | O=C(CNC(=S)N(Cc1ccccc1)Cc1ccccc1F)NCc1ccc(Cl)cc1 | 35.5 µM [falling, single point] | –
5 | O=C(NCc1ccc2c(c1)CCO2)Nc1cccc(C(F)(F)F)c1 | 35.5 µM [falling, single point] | –
6 | O=C(CCN1C(=O)/C(=C/c2ccc(F)cc2)SC1=S)Nc1cc([N+](=O)[O-])ccc1O | 14.1 µM [falling, partial curve, poor fit] | –
7 | Nc1ccc2nc(-c3cccs3)[nH]c2c1 | 29.1 µM [falling, single point] | –
8 | CC(=O)/C(=C/N(C)C)Sc1ccc(C)cc1 | 6.51 µM [rising, single point] | –
9 | Cc1c(Cl)ccc2c(C(=O)NC(C)c3ccncc3)cc(-c3ccncc3)nc12 (configuration not stated) | 35.5 µM [falling, single point] | –
10 | Cn1c(=O)cc(OCCCC(=O)NC2CCCC2)c2ccccc21 | 2.51 µM [rising, full curve, poor fit] | –
11 | CCc1ccc(CN2CCCC(C(=O)Nc3ccccc3-c3ccc(OC)cc3)C2)o1 (configuration not stated) | 22.4 µM [falling, single point] | –
12 | O=[N+]([O-])c1ccc(N2CCOCC2)cc1NCc1ccccc1 | 20 µM [rising, single point] | –
13 | C/C(CC(=O)Nc1ccc2c(c1)OCCO2)=N\NC(=O)c1ccccc1F | 17.8 µM [falling, partial curve, poor fit] | –
14 | COc1ccc(-c2nnc(SC(C(=O)c3c[nH]c4ccccc34)c3ccccc3)n2N)cc1OC (configuration not stated) | 23.1 µM [falling, single point] | –
15 | Cc1cccc2cc(C#N)c(NCCNC(=S)NCCCN3CCOCC3)nc12 | 32.6 µM [falling, single point] | –
16 | O=C1Oc2ccccc2C(=O)/C1=C/c1ccccc1O | 3.55 µM [falling, partial curve, poor fit] | –
17 | O=C(O)c1cc([N+](=O)[O-])c(Nc2cccc3ccccc23)c([N+](=O)[O-])c1 | 0.708 µM [falling, full curve, poor fit] | –
18 | N#Cc1ccccc1NC(=O)CNc1ccc(Cl)c(C(F)(F)F)c1 | 29.1 µM [falling, single point] | –
19 | CC1(CCC(=O)N2CCCC(N3CCN(c4ccc(F)cc4)CC3)C2)CC1 (configuration not stated) | 0.562 µM [falling, full curve, poor fit] | –
20 | CCOC(=O)c1ccc(NC(=O)N2CCc3ccccc32)cc1 | 16.4 µM [falling, partial curve, poor fit] | –
21 | CCc1ccc(OCC(=O)Nc2ccc(S(=O)(=O)N3CCOCC3)cc2)cc1 | 8.2 µM [rising, partial curve] | –
22 | CCCCSc1nnc(-c2ccc(OC)cc2)n1C | 2.31 µM [falling, single point] | –

One compound at a time (already shown):
`O=C(O)c1cc([N+](=O)[O-])c(Nc2cccc3ccccc23)c([N+](=O)[O-])c1` is listed as AC50 [1]: 0.708 µM [falling, full curve, poor fit]
`Cc1cccc2cc(C#N)c(NCCNC(=S)NCCCN3CCOCC3)nc12` is listed as AC50 [1]: 32.6 µM [falling, single point]
`COc1ccc(-c2nnc(SC(C(=O)c3c[nH]c4ccccc34)c3ccccc3)n2N)cc1OC` (configuration not stated) is listed as AC50 [1]: 23.1 µM [falling, single point]

Remaining list, next part.

Row | SMILES | AC50 [1] | AC50 [2]
23 | CCc1ccc(C(CNc2nc(C(F)(F)F)nc3ccccc23)N(C)C)cc1 (configuration not stated) | 22.4 µM [falling, single point] | –
24 | Brc1ccc2nc(-c3c[nH]c4ccccc34)cn2c1 | 0.631 µM [rising, partial curve, poor fit] | –
25 | COc1ccc(NC(=O)CCCc2ccccc2)cc1OC | 6.31 µM [rising, partial curve, poor fit] | –
26 | c1ccc(Sc2ncnc3c2oc2ccccc23)nc1 | 29.1 µM [falling, single point] | –
27 | COc1ccc(COCC(O)CN2CCC(CN3C(=O)c4cccc5cccc(c45)C3=O)CC2)cc1OC (configuration not stated) | 23.1 µM [falling, partial curve, poor fit] | –
28 | COc1cccc(C(=O)O/N=C(\N)c2ccncc2)c1 | 14.1 µM [falling, single point] | –
29 | S=C(Nc1ccc(N2CCOCC2)cc1)Nc1ccc2snnc2c1 | 35.5 µM [rising, single point] | –
30 | Cc1ccc(CSC2=NCCN2C(=O)C2CC2)cc1 | 1.46 µM [rising, full curve, poor fit] | –
31 | Cc1nn(-c2ccc(Cl)c(Cl)c2)c(C)c1C(=O)O | 35.5 µM [rising, single point] | –
32 | CC(C)n1nnnc1SCC(=O)Nc1ccc2c(c1)OCCO2 | 17.8 µM [falling, single point] | –
33 | O=C(/C=C/c1ccc(Cl)cc1Cl)c1ccc[nH]1 | 35.5 µM [falling, single point] | –
34 | Cc1cc(C(=O)NCc2ccco2)c2cc(F)ccc2n1 | 22.4 µM [falling, single point] | 7.08 µM [rising, partial curve, poor fit]
35 | O=C(COC(=O)c1ccccc1Cc1ccccc1)Nc1ccc(SC(F)F)cc1 | 29.1 µM [falling, single point] | –
36 | N#C/C(=C/c1ccc(O)c(O)c1)c1nc2ccccc2[nH]1 | 35.5 µM [falling, single point] | –
37 | CCCCc1ccc(NC(=O)Nc2cccnc2)cc1 | 35.5 µM [rising, single point] | 22.4 µM [falling, partial curve, poor fit]
38 | Cc1cc(NC(=O)Nc2ccc(Cl)cc2)n(C)n1 | 20 µM [rising, partial curve, poor fit] | –
39 | O=C1CCCC2=C1C(c1ccccc1)n1c(s/c(=C/c3cccc(F)c3)c1=O)=N2 (configuration not stated) | 29.1 µM [rising, partial curve, poor fit] | –
40 | CCc1ccc(NC(=O)CSC2=Nc3ccccc3C3=NC(CCC(=O)NCc4ccccc4)C(=O)N23)cc1 (configuration not stated) | 5.01 µM [falling, full curve] | –
41 | CCc1cc2c3c(c(=O)oc2cc1OCC(=O)OC)CCCC3 | 35.5 µM [rising, partial curve, poor fit] | –
42 | O=C(N/N=C\c1ccc2c(c1)OCO2)c1cncc(Br)c1 | 1.12 µM [falling, full curve, poor fit] | –
43 | O=C(Nc1ccsc1C(=O)O)c1cccc(C(F)(F)F)c1 | 14.1 µM [falling, single point] | –
44 | COc1ccc(/C=C/C(=O)O)cc1O | 6.51 µM [rising, single point] | –

Row | SMILES | AC50 [1] | AC50 [2]
45 | Fc1ccc2cc(-c3ccccc3)ncc2c1 | 23.1 µM [rising, single point] | –
46 | O=S(=O)(NCCc1csc(-c2ccccc2)n1)c1ccc2c(c1)OCCO2 | 4.61 µM [falling, single point] | –
47 | Cc1ccc(NC2Sc3ccccc3NC2=O)cc1Cl (configuration not stated) | 7.94 µM [falling, partial curve, poor fit] | –
48 | CC(C)=CCOc1c2ccoc2cc2oc(=O)ccc12 | 23.1 µM [rising, partial curve] | –
49 | CCOC(=O)C1(Cc2ccccc2)CCN(Cc2cnn(CC)c2)CC1 | 14.1 µM [falling, partial curve, poor fit] | –
50 | CCOC(=O)[C@H]1[C@H]2COc3ccccc3[C@@H]2N2C(=O)c3cc(Cl)ccc3NC(=O)[C@@]12C | 13 µM [falling, partial curve] | –
51 | O=C(CNC(=O)Cc1ccccc1)NCC(=O)OCC(=O)c1ccc(F)cc1 | 17.8 µM [rising, single point] | –
52 | CC(=O)Nc1c(C(N)=O)oc2ccc(Cl)cc12 | 1.58 µM [falling, full curve] | –
53 | N=C(N)SCP(=O)(c1ccccc1)c1ccccc1 | 11.2 µM [falling, partial curve] | –
54 | CCn1c(SCC(=O)N2CCCCC2C)nc2ccsc2c1=O (configuration not stated) | 3.98 µM [falling, partial curve, poor fit] | –
55 | Cc1sc2ncnc(OCC(=O)N3CCN(S(=O)(=O)c4ccc(Cl)cc4)CC3)c2c1C | 4.11 µM [falling, single point] | –
56 | CC1CSc2nc3sc4c(c3c(=O)n21)CCCC4 (configuration not stated) | 11.2 µM [rising, partial curve, poor fit] | –
57 | CCOc1ccc(CCNS(=O)(=O)c2cc(Br)cc3c2N(C(C)=O)CC3)cc1OCC | 2.24 µM [rising, partial curve, poor fit] | –
58 | Cc1cc(N2CCN(c3ccccc3)CC2)nc2ccccc12 | 2.24 µM [rising, full curve, poor fit] | –
59 | CCOC(=O)c1c(NC(=O)c2ccc(S(=O)(=O)N(CC(C)C)CC(C)C)cc2)sc2c1CCN(C(=O)OCC)C2 | – | 2.82 µM [rising, partial curve, poor fit]
60 | Cc1ccc(NC(=O)C[n+]2ccccc2)cc1[N+](=O)[O-] | 0.562 µM [falling, full curve, poor fit] | –
61 | Cc1cc(C)cc(NS(=O)(=O)c2ccc3c(c2)c(=O)n(C)c(=O)n3C)c1 | 20.6 µM [falling, partial curve, poor fit] | –
62 | CC1(C)CC2(C)OC(=N)C1(C#N)C2(C#N)C#N (configuration not stated) | 17.8 µM [falling, single point] | –
63 | CN(C)CCOc1ccc(-c2c(-c3ccsc3)sc3ccccc23)cc1 | 29.1 µM [falling, single point] | –
64 | CC1=Nc2ccccc2/C1=C/c1sc(=S)n(-c2cccc(C(=O)O)c2)c1O | 35.5 µM [falling, single point] | –
65 | O=C(Nc1ncc2c(n1)-c1ccccc1CC2)c1cccc(Cl)c1 | 3.98 µM [falling, partial curve, poor fit] | –
